Laboratory results reported in PMC5378613.

The chains behind the UniProt entries cited, without tags or fusion partners.
UniProt P61604: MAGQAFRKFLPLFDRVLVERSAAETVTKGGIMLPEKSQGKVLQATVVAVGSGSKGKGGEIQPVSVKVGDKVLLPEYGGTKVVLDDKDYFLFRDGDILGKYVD

T1: ID4 (inhibitor of differentiation 4), endogenous in LNCaP cells (human (endogenous in LNCaP)) (UniProt P47928)
T1 sequence: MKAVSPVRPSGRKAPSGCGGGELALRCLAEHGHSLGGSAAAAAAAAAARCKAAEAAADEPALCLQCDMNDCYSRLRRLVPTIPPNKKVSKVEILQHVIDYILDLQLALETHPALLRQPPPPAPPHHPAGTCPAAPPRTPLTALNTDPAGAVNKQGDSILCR

B1: FKBP52 (52-kDa FK506-binding protein), endogenous in prostate cancer cells (protein, UniProt Q02790 1-459)
chain: MTAEEMKATESGAQSAPLPMEGVDISPKQDEGVLKVIKREGTGTEMPMIGDRVFVHYTGWLLDGTKFDSSLDRKDKFSFDLGKGEVIKAWDIAIATMKVGEVCHITCKPEYAYGSAGSPPKIPPNATLVFEVELFEFKGEDLTEEEDGGIIRRIQTRGEGYAKPNEGAIVEVALEGYYKDKLFDQRELRFEIGEGENLDLPYGLERAIQRMEKGEHSIVYLKPSYAFGSVGKEKFQIPPNAELKYELHLKSFEKAKESWEMNSEEKLEQSTIVKERGTVYFKEGKYKQALLQYKKIVSWLEYESSFSNEEAQKAQALRLASHLNLAMCHLKLQAFSAAIESCNKALELDSNNEKGLFRRGEAHLAVNDFELARADFQKVLQLYPNNKAAKTQLAVCQQRIRRQLAREKKLYANMFERLAEEENKAKAEASSGDHPTDTEMKEEQKSNTAGSQSQVETEA

Key:
[1] = target: T1, ID4 (inhibitor of differentiation 4), endogenous in LNCaP cells (human (endogenous in LNCaP)); experiment: affinity purification with mass spectrometry; co-immunoprecipitation with an ID4-specific antibody on protein A magnetic beads from L+ns (LNCaP) cells; partners identified by LC-MS/MS on LTQ-Orbitrap
[2] = target: T1, ID4 (inhibitor of differentiation 4), endogenous in LNCaP cells (human (endogenous in LNCaP)); experiment: as above; remark: listed apart in the source

| Molecule | binding [1] | binding [2] |
| --- | --- | --- |
| Hsp10, endogenous in LNCaP cells (from UniProt P61604 1-102) | binds | – |
| B1 | – | binds |

Like-named read-outs stand apart in the source and are kept apart here. These are yes or no findings as the source states them, for the method shown. In cells and extracts the contact can be indirect. A yes stands for co-enrichment or nearness to the bait. Other partners may have been found.
